# According to paper PMC3189125:
# Amino acid sequences for entries named in this document (tags omitted).
# UniProt P21244: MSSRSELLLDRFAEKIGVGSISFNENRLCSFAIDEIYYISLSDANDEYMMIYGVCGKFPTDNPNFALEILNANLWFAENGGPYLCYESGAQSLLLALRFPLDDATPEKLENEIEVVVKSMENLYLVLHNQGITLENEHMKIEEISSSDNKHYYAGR
# UniProt B7UM99: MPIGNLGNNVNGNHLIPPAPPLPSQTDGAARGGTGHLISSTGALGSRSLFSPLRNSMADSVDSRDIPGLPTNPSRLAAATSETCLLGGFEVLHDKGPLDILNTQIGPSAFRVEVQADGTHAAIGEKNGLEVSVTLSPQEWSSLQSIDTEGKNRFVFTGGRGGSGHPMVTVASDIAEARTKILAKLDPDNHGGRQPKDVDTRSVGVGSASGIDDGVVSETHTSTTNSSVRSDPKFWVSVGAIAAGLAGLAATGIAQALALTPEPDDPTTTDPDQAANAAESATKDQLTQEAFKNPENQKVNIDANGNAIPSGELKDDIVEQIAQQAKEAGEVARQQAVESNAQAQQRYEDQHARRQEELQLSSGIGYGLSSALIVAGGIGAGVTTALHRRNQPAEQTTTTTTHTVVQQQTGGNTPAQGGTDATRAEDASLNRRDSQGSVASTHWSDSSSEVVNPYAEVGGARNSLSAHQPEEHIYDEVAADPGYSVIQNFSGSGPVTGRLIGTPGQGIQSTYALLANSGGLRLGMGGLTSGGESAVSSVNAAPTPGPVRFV
# These are yes or no findings as the source states them, for the method shown. Binding seen in cells or lysates may run through a third protein. Some entries that bind do so weakly or less than the wild type.
# Biological target: CesT, multicargo type III secretion chaperone (enteropathogenic E. coli E2348/69 (endogenous in EPEC)) (UniProt P21244)
# Assay: co-IP; affinity purified polyclonal anti-CesT antibody on Protein A agarose beads, added to EPEC cell lysates, overnight at 4°C, washed 3 times with PBS, eluted with 100 mM glycine pH 2.2; elution fractions immunoblotted
row,Substance,binding
1,HA-EscU-FLAG (auto-cleaved EscU) (from UniProt Q9AJ26 1-262; Q9AJ26 263-345),no binding
2,"Tir, type III effector (from UniProt B7UM99 1-550)",binds
